These are yes or no findings as the source states them, for the method shown. Binding seen in cells or lysates may run through a third protein. Binding can be weak; no strength is given.

The chains behind the UniProt entries cited, without tags or fusion partners. Where a name states a change or a piece, a line headed by the entry shows the natural chain unless it says otherwise.
UniProt P08050: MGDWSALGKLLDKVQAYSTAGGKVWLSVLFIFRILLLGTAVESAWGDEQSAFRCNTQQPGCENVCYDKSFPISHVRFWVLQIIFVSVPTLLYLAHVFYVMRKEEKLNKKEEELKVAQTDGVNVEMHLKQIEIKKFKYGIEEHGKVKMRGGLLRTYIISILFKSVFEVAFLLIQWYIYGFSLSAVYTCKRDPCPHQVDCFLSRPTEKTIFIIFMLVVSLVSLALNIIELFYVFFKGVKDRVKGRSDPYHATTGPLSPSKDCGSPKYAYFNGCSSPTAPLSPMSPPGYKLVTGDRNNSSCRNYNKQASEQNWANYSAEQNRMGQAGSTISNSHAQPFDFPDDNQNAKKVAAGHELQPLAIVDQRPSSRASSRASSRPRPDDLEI
UniProt A6IA08: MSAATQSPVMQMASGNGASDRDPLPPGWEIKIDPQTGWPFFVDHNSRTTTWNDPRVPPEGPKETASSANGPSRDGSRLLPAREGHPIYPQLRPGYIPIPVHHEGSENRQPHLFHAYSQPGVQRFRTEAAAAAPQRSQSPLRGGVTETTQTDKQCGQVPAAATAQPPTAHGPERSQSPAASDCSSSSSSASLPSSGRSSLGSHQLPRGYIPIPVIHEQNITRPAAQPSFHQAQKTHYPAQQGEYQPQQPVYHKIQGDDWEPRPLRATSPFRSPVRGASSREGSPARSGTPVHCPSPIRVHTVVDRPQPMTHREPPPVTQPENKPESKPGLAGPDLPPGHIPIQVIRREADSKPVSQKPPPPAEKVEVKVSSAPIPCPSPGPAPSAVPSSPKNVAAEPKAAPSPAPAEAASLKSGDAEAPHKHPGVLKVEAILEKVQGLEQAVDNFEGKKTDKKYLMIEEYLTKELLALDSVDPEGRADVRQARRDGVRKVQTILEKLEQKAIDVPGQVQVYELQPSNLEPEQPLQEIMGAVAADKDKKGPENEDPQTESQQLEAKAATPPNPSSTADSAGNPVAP

This experiment deals with connexin 43 (rat (endogenous in NRVCs)) (UniProt P08050). The experiment can be described thus: co-IP; NRVC lysate (20 mM Tris HCl pH 8, 137 mM NaCl, 10% glycerol, 1% Nonidet P-40, 2 mM EDTA) rotated with a specific antibody (against Cx43 or against BAG3) or normal rabbit serum for 4 hours at 4 °C, then protein A/G beads for 4 hours at 4 °C; Western blot of the immunocomplexes. (A western blot detects proteins with antibodies after separation by electrophoresis.)

Regarding “Bcl2-associated athanogene 3 (from UniProt A6IA08)”, the binding result is given as “binds”.

(Values after PMC6529437.)
